Measured values reported in the supplement of paper PMC11546906.
Structures can show the parent of a compound that is named as a salt. Some of the results follow. Repeats in this data set agree poorly, so a single value says little.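 Screen of FDA-approved drugs, each combined with colistin at one-eighth of its MIC, against a multidrug-resistant mcr-1-positive clinical E. coli isolate; growth read as OD600 after 24 h. Bacteria without drug were the growth control and plain broth the blank. A combination counted as active when OD600 fell below 0.2.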

Tested on: Escherichia coli 42 (mcr-1-positive clinical isolate)
Assay: OD600 after 24 h growth with compound plus colistin (absorbance units (OD600)); higher = more bacterial growth (less inhibition)
Settings: first compound 25 µM; colistin concentration 0.5 ug/mL; incubation time 24 h; 37 °C

Compound	OD600
CC(C(=O)O)c1ccc2c(c1)[nH]c1ccc(Cl)cc12 (centres undefined) [Carprofen] + CCC(C)CCCC(=O)N[C@@H](CCN)C(=O)N[C@H](C(=O)N[C@@H](CCN)C(=O)N[C@H]1CCNC(=O)[C@H]([C@@H](C)O)NC(=O)[C@H](CCN)NC(=O)[C@H](CCN)NC(=O)[C@H](CC(C)C)NC(=O)[C@@H](CC(C)C)NC(=O)[C@H](CCN)NC1=O)[C@@H](C)O [colistin]	inactive: 0.755
CC(=O)Oc1ccccc1C(=O)Nc1ncc([N+](=O)[O-])s1 [Nitazoxanide] + CCC(C)CCCC(=O)N[C@@H](CCN)C(=O)N[C@H](C(=O)N[C@@H](CCN)C(=O)N[C@H]1CCNC(=O)[C@H]([C@@H](C)O)NC(=O)[C@H](CCN)NC(=O)[C@H](CCN)NC(=O)[C@H](CC(C)C)NC(=O)[C@@H](CC(C)C)NC(=O)[C@H](CCN)NC1=O)[C@@H](C)O [colistin]	inactive: 0.874
Cn1c(=O)cc(N2CCC[C@@H](N)C2)n(Cc2ccccc2C#N)c1=O [Alogliptin Benzoate] + CCC(C)CCCC(=O)N[C@@H](CCN)C(=O)N[C@H](C(=O)N[C@@H](CCN)C(=O)N[C@H]1CCNC(=O)[C@H]([C@@H](C)O)NC(=O)[C@H](CCN)NC(=O)[C@H](CCN)NC(=O)[C@H](CC(C)C)NC(=O)[C@@H](CC(C)C)NC(=O)[C@H](CCN)NC1=O)[C@@H](C)O [colistin]	inactive: 0.9
CCN(CC)C(=O)C1(c2ccccc2)CC1CN (centres undefined) [Milnacipran hydrochloride] + CCC(C)CCCC(=O)N[C@@H](CCN)C(=O)N[C@H](C(=O)N[C@@H](CCN)C(=O)N[C@H]1CCNC(=O)[C@H]([C@@H](C)O)NC(=O)[C@H](CCN)NC(=O)[C@H](CCN)NC(=O)[C@H](CC(C)C)NC(=O)[C@@H](CC(C)C)NC(=O)[C@H](CCN)NC1=O)[C@@H](C)O [colistin]	inactive: 1.06
CC(=O)N[C@H]1[C@H]([C@H](O)[C@H](O)CO)OC(C(=O)O)=C[C@@H]1NC(=N)N [Zanamivir] + CCC(C)CCCC(=O)N[C@@H](CCN)C(=O)N[C@H](C(=O)N[C@@H](CCN)C(=O)N[C@H]1CCNC(=O)[C@H]([C@@H](C)O)NC(=O)[C@H](CCN)NC(=O)[C@H](CCN)NC(=O)[C@H](CC(C)C)NC(=O)[C@@H](CC(C)C)NC(=O)[C@H](CCN)NC1=O)[C@@H](C)O [colistin]	inactive: 1
OC[C@@H](O)[C@@H](O)[C@H](O)[C@H](O)CO [D-Mannitol] + CCC(C)CCCC(=O)N[C@@H](CCN)C(=O)N[C@H](C(=O)N[C@@H](CCN)C(=O)N[C@H]1CCNC(=O)[C@H]([C@@H](C)O)NC(=O)[C@H](CCN)NC(=O)[C@H](CCN)NC(=O)[C@H](CC(C)C)NC(=O)[C@@H](CC(C)C)NC(=O)[C@H](CCN)NC1=O)[C@@H](C)O [colistin]	inactive: 0.805
Cc1ccc(Cl)c(Nc2ccccc2C(=O)O)c1Cl [Meclofenamic acid sodium] + CCC(C)CCCC(=O)N[C@@H](CCN)C(=O)N[C@H](C(=O)N[C@@H](CCN)C(=O)N[C@H]1CCNC(=O)[C@H]([C@@H](C)O)NC(=O)[C@H](CCN)NC(=O)[C@H](CCN)NC(=O)[C@H](CC(C)C)NC(=O)[C@@H](CC(C)C)NC(=O)[C@H](CCN)NC1=O)[C@@H](C)O [colistin]	inactive: 1.13
C[C@@H](O)[C@H]1C(=O)N2C(C(=O)O)=C(S[C@@H]3CN[C@H](C(=O)N(C)C)C3)[C@H](C)[C@H]12 [Meropenem] + CCC(C)CCCC(=O)N[C@@H](CCN)C(=O)N[C@H](C(=O)N[C@@H](CCN)C(=O)N[C@H]1CCNC(=O)[C@H]([C@@H](C)O)NC(=O)[C@H](CCN)NC(=O)[C@H](CCN)NC(=O)[C@H](CC(C)C)NC(=O)[C@@H](CC(C)C)NC(=O)[C@H](CCN)NC1=O)[C@@H](C)O [colistin]	inactive: 1.2
CC(=O)O[C@@]12CO[C@@H]1C[C@H](O)[C@@]1(C)C(=O)[C@H](O)C3=C(C)[C@@H](OC(=O)[C@H](O)[C@@H](NC(=O)OC(C)(C)C)c4ccccc4)C[C@@](O)([C@@H](OC(=O)c4ccccc4)[C@H]21)C3(C)C [Docetaxel] + CCC(C)CCCC(=O)N[C@@H](CCN)C(=O)N[C@H](C(=O)N[C@@H](CCN)C(=O)N[C@H]1CCNC(=O)[C@H]([C@@H](C)O)NC(=O)[C@H](CCN)NC(=O)[C@H](CCN)NC(=O)[C@H](CC(C)C)NC(=O)[C@@H](CC(C)C)NC(=O)[C@H](CCN)NC1=O)[C@@H](C)O [colistin]	inactive: 0.842
CCN(CC)CCNC(=O)c1c(C)[nH]c(/C=C2\C(=O)Nc3ccc(F)cc32)c1C [Sunitinib] + CCC(C)CCCC(=O)N[C@@H](CCN)C(=O)N[C@H](C(=O)N[C@@H](CCN)C(=O)N[C@H]1CCNC(=O)[C@H]([C@@H](C)O)NC(=O)[C@H](CCN)NC(=O)[C@H](CCN)NC(=O)[C@H](CC(C)C)NC(=O)[C@@H](CC(C)C)NC(=O)[C@H](CCN)NC1=O)[C@@H](C)O [colistin]	inactive: 0.843
Nc1nc(=O)n([C@@H]2CS[C@H](CO)O2)cc1F [Emtricitabine] + CCC(C)CCCC(=O)N[C@@H](CCN)C(=O)N[C@H](C(=O)N[C@@H](CCN)C(=O)N[C@H]1CCNC(=O)[C@H]([C@@H](C)O)NC(=O)[C@H](CCN)NC(=O)[C@H](CCN)NC(=O)[C@H](CC(C)C)NC(=O)[C@@H](CC(C)C)NC(=O)[C@H](CCN)NC1=O)[C@@H](C)O [colistin]	inactive: 0.905
NC12CC3CC(CC(C3)C1)C2 [Amantadine hydrochloride] + CCC(C)CCCC(=O)N[C@@H](CCN)C(=O)N[C@H](C(=O)N[C@@H](CCN)C(=O)N[C@H]1CCNC(=O)[C@H]([C@@H](C)O)NC(=O)[C@H](CCN)NC(=O)[C@H](CCN)NC(=O)[C@H](CC(C)C)NC(=O)[C@@H](CC(C)C)NC(=O)[C@H](CCN)NC1=O)[C@@H](C)O [colistin]	inactive: 0.742
NS(=O)(=O)c1cc2c(cc1Cl)N=C(CSCc1ccccc1)NS2(=O)=O [Benzthiazide] + CCC(C)CCCC(=O)N[C@@H](CCN)C(=O)N[C@H](C(=O)N[C@@H](CCN)C(=O)N[C@H]1CCNC(=O)[C@H]([C@@H](C)O)NC(=O)[C@H](CCN)NC(=O)[C@H](CCN)NC(=O)[C@H](CC(C)C)NC(=O)[C@@H](CC(C)C)NC(=O)[C@H](CCN)NC1=O)[C@@H](C)O [colistin]	inactive: 1.07
CCc1ccc(CCOc2ccc(CC3SC(=O)NC3=O)cc2)nc1 (centres undefined) [Pioglitazone hydrochloride] + CCC(C)CCCC(=O)N[C@@H](CCN)C(=O)N[C@H](C(=O)N[C@@H](CCN)C(=O)N[C@H]1CCNC(=O)[C@H]([C@@H](C)O)NC(=O)[C@H](CCN)NC(=O)[C@H](CCN)NC(=O)[C@H](CC(C)C)NC(=O)[C@@H](CC(C)C)NC(=O)[C@H](CCN)NC1=O)[C@@H](C)O [colistin]	inactive: 0.997
Cc1cc(C)nc(NS(=O)(=O)c2ccc(N)cc2)n1 [Sulfamethazine] + CCC(C)CCCC(=O)N[C@@H](CCN)C(=O)N[C@H](C(=O)N[C@@H](CCN)C(=O)N[C@H]1CCNC(=O)[C@H]([C@@H](C)O)NC(=O)[C@H](CCN)NC(=O)[C@H](CCN)NC(=O)[C@H](CC(C)C)NC(=O)[C@@H](CC(C)C)NC(=O)[C@H](CCN)NC1=O)[C@@H](C)O [colistin]	inactive: 1
Cc1cn([C@H]2C=C[C@@H](CO)O2)c(=O)[nH]c1=O [Stavudine] + CCC(C)CCCC(=O)N[C@@H](CCN)C(=O)N[C@H](C(=O)N[C@@H](CCN)C(=O)N[C@H]1CCNC(=O)[C@H]([C@@H](C)O)NC(=O)[C@H](CCN)NC(=O)[C@H](CCN)NC(=O)[C@H](CC(C)C)NC(=O)[C@@H](CC(C)C)NC(=O)[C@H](CCN)NC1=O)[C@@H](C)O [colistin]	inactive: 0.685
CC(C)COc1ccc(CNC(=O)N(Cc2ccc(F)cc2)C2CCN(C)CC2)cc1 [Pimavanserin] + CCC(C)CCCC(=O)N[C@@H](CCN)C(=O)N[C@H](C(=O)N[C@@H](CCN)C(=O)N[C@H]1CCNC(=O)[C@H]([C@@H](C)O)NC(=O)[C@H](CCN)NC(=O)[C@H](CCN)NC(=O)[C@H](CC(C)C)NC(=O)[C@@H](CC(C)C)NC(=O)[C@H](CCN)NC1=O)[C@@H](C)O [colistin]	inactive: 1.04
COc1cc(C(C)=O)ccc1OCCCN1CCC(c2noc3cc(F)ccc23)CC1 [Iloperidone] + CCC(C)CCCC(=O)N[C@@H](CCN)C(=O)N[C@H](C(=O)N[C@@H](CCN)C(=O)N[C@H]1CCNC(=O)[C@H]([C@@H](C)O)NC(=O)[C@H](CCN)NC(=O)[C@H](CCN)NC(=O)[C@H](CC(C)C)NC(=O)[C@@H](CC(C)C)NC(=O)[C@H](CCN)NC1=O)[C@@H](C)O [colistin]	inactive: 1.16
C[N+](C)(C)C[C@@H](O)CC(=O)[O-] [D-Carnitine hydrochloride] + CCC(C)CCCC(=O)N[C@@H](CCN)C(=O)N[C@H](C(=O)N[C@@H](CCN)C(=O)N[C@H]1CCNC(=O)[C@H]([C@@H](C)O)NC(=O)[C@H](CCN)NC(=O)[C@H](CCN)NC(=O)[C@H](CC(C)C)NC(=O)[C@@H](CC(C)C)NC(=O)[C@H](CCN)NC1=O)[C@@H](C)O [colistin]	inactive: 0.993

2 entries picked at random from those above, as already listed:
Compound	OD600
Cc1ccc(Cl)c(Nc2ccccc2C(=O)O)c1Cl [Meclofenamic acid sodium] + CCC(C)CCCC(=O)N[C@@H](CCN)C(=O)N[C@H](C(=O)N[C@@H](CCN)C(=O)N[C@H]1CCNC(=O)[C@H]([C@@H](C)O)NC(=O)[C@H](CCN)NC(=O)[C@H](CCN)NC(=O)[C@H](CC(C)C)NC(=O)[C@@H](CC(C)C)NC(=O)[C@H](CCN)NC1=O)[C@@H](C)O [colistin]	inactive: 1.13
C[N+](C)(C)C[C@@H](O)CC(=O)[O-] [D-Carnitine hydrochloride] + CCC(C)CCCC(=O)N[C@@H](CCN)C(=O)N[C@H](C(=O)N[C@@H](CCN)C(=O)N[C@H]1CCNC(=O)[C@H]([C@@H](C)O)NC(=O)[C@H](CCN)NC(=O)[C@H](CCN)NC(=O)[C@H](CC(C)C)NC(=O)[C@@H](CC(C)C)NC(=O)[C@H](CCN)NC1=O)[C@@H](C)O [colistin]	inactive: 0.993
